The values that follow come from the supplement of paper PMC5393889.

Some of the results follow.

The subject of the assay is Caenorhabditis elegans N2. Nature of the assay: aldicarb interaction hit call (worm growth perturbed in combination with 10 uM aldicarb in both replicates, no effect as single agent) (binary (1 = interacts)); higher = interacts with aldicarb (growth perturbed). The following applies: first compound 1.5 µM; aldicarb concentration 10 µM; 6 days; 20 °C.
Take `Cc1ccc2nc(-c3ccc(/N=C/c4c[nH]c5ccccc45)cc3)sc2c1` [wact-394] + CNC(=O)O/N=C/C(C)(C)SC [aldicarb]: the “aldicarb interaction hit call” value was inactive: 0. As to `CSc1ccccc1C(=O)NCCCc1ccccc1` [wact-568] + CNC(=O)O/N=C/C(C)(C)SC [aldicarb], the “aldicarb interaction hit call” value was inactive: 0. Regarding `Brc1cccc(-c2cn3ccccc3n2)c1` [wact-435] + CNC(=O)O/N=C/C(C)(C)SC [aldicarb], the “aldicarb interaction hit call” value was inactive: 0. With `CCOC(=O)C1CCN(CCOc2ccc(Cl)cc2C)CC1.Cl` [wact-160] + CNC(=O)O/N=C/C(C)(C)SC [aldicarb] the figure was inactive: 0; with `O=C(/C=C/Nc1ccccc1I)c1ccccc1` [wact-422] + CNC(=O)O/N=C/C(C)(C)SC [aldicarb], inactive: 0. Then `O=[N+]([O-])c1ccc(N2CCc3ccccc3C2)nc1` [wact-421] + CNC(=O)O/N=C/C(C)(C)SC [aldicarb], with inactive: 0; and `Cc1ccccc1C(=O)NCCc1ccccc1` [wact-406] + CNC(=O)O/N=C/C(C)(C)SC [aldicarb], with inactive: 0; and `C#CCOc1ccc2ccccc2c1Br` [wact-357] + CNC(=O)O/N=C/C(C)(C)SC [aldicarb], with inactive: 0. Turning to `O=[N+]([O-])c1ccc(NCc2ccccc2)c([N+](=O)[O-])c1` [wact-212] + CNC(=O)O/N=C/C(C)(C)SC [aldicarb], the “aldicarb interaction hit call” value was inactive: 0. Consider `Fc1ccc(N2CCN(Cc3ccc(Br)s3)CC2)cc1` [wact-29] + CNC(=O)O/N=C/C(C)(C)SC [aldicarb], for which the “aldicarb interaction hit call” value is inactive: 0. With `O=C(c1ccc2oc(Cc3ccc(Cl)cc3)nc2c1)N1CCC(c2ccncc2)CC1` [wact-310] + CNC(=O)O/N=C/C(C)(C)SC [aldicarb] the figure was inactive: 0. With `Cc1nc(CN2CCN(Cc3nc(-c4ccc(C(F)(F)F)cc4)no3)CC2)cs1` [wact-285] + CNC(=O)O/N=C/C(C)(C)SC [aldicarb] the figure was inactive: 0. Then `CCc1ccccc1Nc1nc(-c2ccncc2)cs1` [wact-475] + CNC(=O)O/N=C/C(C)(C)SC [aldicarb], with inactive: 0; and `Clc1ccc(N2CCN(Cc3cccc(Br)c3)CC2)cc1` [wact-215] + CNC(=O)O/N=C/C(C)(C)SC [aldicarb], with inactive: 0; and `CNCc1ccc(-c2ccc(Br)cc2)o1.Cl` [wact-192] + CNC(=O)O/N=C/C(C)(C)SC [aldicarb], with inactive: 0.

Take `C#CCOc1ccc(-c2nc(-c3ccccn3)no2)cc1` [wact-616] + CNC(=O)O/N=C/C(C)(C)SC [aldicarb]: the “aldicarb interaction hit call” value is inactive: 0. For the compound `CC(=O)N1CCN(c2cc(N3CCc4ccccc4C3)c(F)cc2[N+](=O)[O-])CC1` [wact-122] + CNC(=O)O/N=C/C(C)(C)SC [aldicarb], the “aldicarb interaction hit call” value was inactive: 0. Then `CCOc1ccc(Br)cc1C(=O)NC(C)c1ccccc1` (configuration not stated) [wact-521] + CNC(=O)O/N=C/C(C)(C)SC [aldicarb], with inactive: 0; and `S=C(Nc1ccccc1)Nc1ccccc1-c1ccccc1NC(=S)Nc1ccccc1` [wact-470] + CNC(=O)O/N=C/C(C)(C)SC [aldicarb], with inactive: 0. With `Oc1ccccc1/C=N/Nc1cccc2cccnc12` [wact-372] + CNC(=O)O/N=C/C(C)(C)SC [aldicarb] the figure was active: 1. With `CCCc1nc(-c2ccc(-c3ccc(F)cc3)cc2)no1` [wact-390] + CNC(=O)O/N=C/C(C)(C)SC [aldicarb] the figure was active: 1.

Turning to `COc1ccc(/C=C/C(=O)/C=C/c2ccccc2)cc1` [wact-426] + CNC(=O)O/N=C/C(C)(C)SC [aldicarb], the “aldicarb interaction hit call” value was inactive: 0. On to `CC1(C)Cc2c(c(N3CCOCC3)nc3sc4c(=O)n(-c5ccccc5)cnc4c23)CO1` [wact-517] + CNC(=O)O/N=C/C(C)(C)SC [aldicarb], for which the “aldicarb interaction hit call” value was inactive: 0. Take `CCCCCNC(=O)c1ccccc1SC` [wact-127] + CNC(=O)O/N=C/C(C)(C)SC [aldicarb]: the “aldicarb interaction hit call” value was inactive: 0. Consider `COc1ccccc1C(=O)Nc1ccc(F)cc1F` [wact-592] + CNC(=O)O/N=C/C(C)(C)SC [aldicarb], for which the “aldicarb interaction hit call” value was inactive: 0. With `CC1CCN(Cc2nc(-c3ccccc3)no2)CC1.Cl` [wact-572] + CNC(=O)O/N=C/C(C)(C)SC [aldicarb] the figure was inactive: 0. Take `c1csc(-c2noc(-c3cccs3)n2)c1` [wact-159] + CNC(=O)O/N=C/C(C)(C)SC [aldicarb]: the “aldicarb interaction hit call” value was inactive: 0.
